These are yes or no findings as the source states them, for the method shown. In cells and extracts the contact can be indirect. Some binding calls cover weakened binding; strength is not graded here. Tags and fused reporters may be left off the sequences shown.

For assay [1], the target named is T1, CfbD from Methanosarcina acetivorans C2A, untagged (Methanosarcina acetivorans C2A) (UniProt Q8TJZ8).
T1 sequence: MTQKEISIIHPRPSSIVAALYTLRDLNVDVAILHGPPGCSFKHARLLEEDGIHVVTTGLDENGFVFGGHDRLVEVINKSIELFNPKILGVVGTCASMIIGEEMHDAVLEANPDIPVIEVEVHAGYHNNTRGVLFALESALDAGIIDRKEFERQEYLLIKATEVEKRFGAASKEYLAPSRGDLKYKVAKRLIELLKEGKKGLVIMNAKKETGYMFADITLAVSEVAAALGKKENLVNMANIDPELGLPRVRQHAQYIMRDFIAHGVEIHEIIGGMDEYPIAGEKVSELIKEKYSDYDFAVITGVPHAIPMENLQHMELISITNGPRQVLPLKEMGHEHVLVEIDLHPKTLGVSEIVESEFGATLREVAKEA
The assay can be described thus: purified complex (Ni-IMAC co-purification) used in enzyme assays.

For assay [2], the target named is T1, CfbD from Methanosarcina acetivorans C2A, untagged (Methanosarcina acetivorans C2A). The assay can be described thus: co-expression in E. coli and co-purification by Ni-IMAC through the His6-tag on CfbC.

B1: CfbC from Methanosarcina acetivorans C2A with cleavable N-terminal His6-tag (enzyme, not shown: small tags and cut ends)
chain: MKKQKIVAIYGKGGIGKSSTASNVAAACAEAGKKVMIIGCDPKSDSSITLLRGKRIPTILDLLREGVDVQEKDVVFEGYAGVKCVEAGGPEPGIGCAGRGIIVAIQKLKSISGDLLKEQDLIIYDVPGDIVCGGFVAPVRKGYVNEAYVLTSGEYMPLYAANNICKGLSKIGMPLSGVICNSRNASREEEIVRKFSEEIGSQLMAFIPKRQIVQDCEREGYSVMEKAPDSDIAEVYRQLGKSILTNEKKVMASHLSDERLREMTK
As to B1, the binding result in assay [1] and in assay [2] was “binds” throughout.

Source of the values: US10793863.
